Data from patent US20150105327.
Changes are numbered by the printed parent chain.

B1: VprBP mutant at L378 (protein)
chain: MTTVVVHVDSKAELTTLLEQWEKEHGSGQDMVPILTRMSQLIEKETEEYRKGDPDPFDDRHPGRADPECMLGHLLRILFKNDDFMNALVNAYVMTSREPPLNTAACRLLLDIMPGLETAVVFQEKEGIVENLFKWAREADQPLRTYSTGLLGGAMENQDIAANYRDENSQLVAIVLRRLRELQLQEVALRQENKRPSPRKLSSEPLLPLDEEAVDMDYGDMAVDVVDGDQEEASGDMEISFHLDSGHKTSSRVNSTTKPEDGGLKKNKSAKQGDRENFRKAKQKLGFSSSDPDRMFVELSNSSWSEMSPWVIGTNYTLYPMTPAIEQRLILQYLTPLGEYQELLPIFMQLGSRELMMFYIDLKQTNDVLLTFEALKHASLLLHNKFATEFVAHGGVQKLLEIPRPSMAATGVSMCLYYLSYNQDAMERVCMHPHNVLSDVVNYTLWLMECSHASGCCHATMFFSICFSFRAVLELFDRYDGLRRLVNLISTLEILNLEDQGALLSDDEIFASRQTGKHTCMALRKYFEAHLAIKLEQVKQSLQRTEGGILVHPQPPYKACSYTHEQIVEMMEFLIEYGPAQLYWEPAEVFLKLSCVQLLLQLISIACNWKTYYARNDTVRFALDVLAILTVVPKIQLQLAESVDVLDEAGSTVSTVGISIILGVAEGEFFIHDAEIQKSALQIIINCVCGPDNRISSIGKFISGTPRRKLPQNPKSSEHTLAKMWNVVQSNNGIKVLLSLLSIKMPITDADQIRALACKALVGLSRSSTVRQIISKLPLFSSCQIQQLMKEPVLQDKRSDHVKFCKYAAELIERVSGKPLLIGTDVSLARLQKADVVAQSRISFPEKELLLLIRNHLISKGLGETATVLTKEADLPMTAASHSSAFTPVTAAASPVSLPRTPRIANGIATRLGSHAAVGASAPSAPTAHPQPRPPQGPLALPGPSYAGNSPLIGRISFIRERPSPCNGRKIRVLRQKSDHGAYSQSPAIKKQLDRHLPSPPTLDSIITEYLREQHARCKNPVATCPPFSLFTPHQCPEPKQRRQAPINFTSRLNRRASFPKYGGVDGGCFDRHLIFSRFRPISVFREANEDESGFTCCAFSARERFLMLGTCTGQLKLYNVFSGQEEASYNCHNSAITHLEPSRDGSLLLTSATWSQPLSALWGMKSVFDMKHSFTEDHYVEFSKHSQDRVIGTKGDIAHIYDIQTGNKLLTLFNPDLANNYKRNCATFNPTDDLVLNDGVLWDVRSAQAIHKFDKFNMNISGVFHPNGLEVIINTEIWDLRTFHLLHTVPALDQCRVVFNHTGTVMYGAMLQADDEDDLMEERMKSPFGSSFRTFNATDYKPIATIDVKRNIFDLCTDTKDCYLAVIENQGSMDALNMDTVCRLYEVGRQRLAEDEDEEEDQEEEEQEEEDDDEDDDDTDDLDELDTDQLLEAELEEDDNNENAGEDGDNDFSPSDEELANLLEEGEDGEDEDSDADEEVELILGDTDSSDNSDLEDDIILSLNE
B2: VprBP mutant at D361 (protein)
chain: MTTVVVHVDSKAELTTLLEQWEKEHGSGQDMVPILTRMSQLIEKETEEYRKGDPDPFDDRHPGRADPECMLGHLLRILFKNDDFMNALVNAYVMTSREPPLNTAACRLLLDIMPGLETAVVFQEKEGIVENLFKWAREADQPLRTYSTGLLGGAMENQDIAANYRDENSQLVAIVLRRLRELQLQEVALRQENKRPSPRKLSSEPLLPLDEEAVDMDYGDMAVDVVDGDQEEASGDMEISFHLDSGHKTSSRVNSTTKPEDGGLKKNKSAKQGDRENFRKAKQKLGFSSSDPDRMFVELSNSSWSEMSPWVIGTNYTLYPMTPAIEQRLILQYLTPLGEYQELLPIFMQLGSRELMMFYILKQTNDVLLTFEALKHLASLLLHNKFATEFVAHGGVQKLLEIPRPSMAATGVSMCLYYLSYNQDAMERVCMHPHNVLSDVVNYTLWLMECSHASGCCHATMFFSICFSFRAVLELFDRYDGLRRLVNLISTLEILNLEDQGALLSDDEIFASRQTGKHTCMALRKYFEAHLAIKLEQVKQSLQRTEGGILVHPQPPYKACSYTHEQIVEMMEFLIEYGPAQLYWEPAEVFLKLSCVQLLLQLISIACNWKTYYARNDTVRFALDVLAILTVVPKIQLQLAESVDVLDEAGSTVSTVGISIILGVAEGEFFIHDAEIQKSALQIIINCVCGPDNRISSIGKFISGTPRRKLPQNPKSSEHTLAKMWNVVQSNNGIKVLLSLLSIKMPITDADQIRALACKALVGLSRSSTVRQIISKLPLFSSCQIQQLMKEPVLQDKRSDHVKFCKYAAELIERVSGKPLLIGTDVSLARLQKADVVAQSRISFPEKELLLLIRNHLISKGLGETATVLTKEADLPMTAASHSSAFTPVTAAASPVSLPRTPRIANGIATRLGSHAAVGASAPSAPTAHPQPRPPQGPLALPGPSYAGNSPLIGRISFIRERPSPCNGRKIRVLRQKSDHGAYSQSPAIKKQLDRHLPSPPTLDSIITEYLREQHARCKNPVATCPPFSLFTPHQCPEPKQRRQAPINFTSRLNRRASFPKYGGVDGGCFDRHLIFSRFRPISVFREANEDESGFTCCAFSARERFLMLGTCTGQLKLYNVFSGQEEASYNCHNSAITHLEPSRDGSLLLTSATWSQPLSALWGMKSVFDMKHSFTEDHYVEFSKHSQDRVIGTKGDIAHIYDIQTGNKLLTLFNPDLANNYKRNCATFNPTDDLVLNDGVLWDVRSAQAIHKFDKFNMNISGVFHPNGLEVIINTEIWDLRTFHLLHTVPALDQCRVVFNHTGTVMYGAMLQADDEDDLMEERMKSPFGSSFRTFNATDYKPIATIDVKRNIFDLCTDTKDCYLAVIENQGSMDALNMDTVCRLYEVGRQRLAEDEDEEEDQEEEEQEEEDDDEDDDDTDDLDELDTDQLLEAELEEDDNNENAGEDGDNDFSPSDEELANLLEEGEDGEDEDSDADEEVELILGDTDSSDNSDLEDDIILSLNE
B3: VprBP mutant at K363 (protein)
chain: B2 chain with L361D, K362L

What follows are proteins tested against recombinant human histone H2A (wild type).
B1 was tested, and the “H2A phosphorylation in nucleosomes, in vitro kinase assay, autoradiography” value (“H2A phosphorylation in nucleosomes” below) was “mutation of L378 lying outside the conserved subdomains did not affect VprBP kinase activity”.
With B2 the “H2A phosphorylation in nucleosomes” value was “Mutation at either D361 or K363 that is conserved in the subdomain VI also impaired the catalytic activity”.
With B3 the “H2A phosphorylation in nucleosomes” value was “Mutation at either D361 or K363 that is conserved in the subdomain VI also impaired the catalytic activity”.
